Results on 22 compounds are retold here after the supplement of paper PMC4749390.

Counter-ions that a name gives are not always drawn. The list shows a part of the results. Repeats in this data set agree poorly, so a single value says little.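 Wild-type human LRH-1, a heavily sumoylated nuclear receptor, is tetracycline-inducible in stable JEG3 cells. RT-qPCR measured SUMO-sensitive APOC3 and MUC1 transcripts, which rise with SUMO-less LRH-1 or UBC9 knockdown, versus TBP and DMSO controls. Robust Z-scores beyond ±2 flagged primary hits, followed by toxicity and TBP filtering.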

The test concerns JEG3 expressing hLRH-1. As to the kind of experiment: MUC1 transcript change (ddCt vs TBP and DMSO), Z-score over library; higher = higher MUC1 expression. The settings on record: 10 µM; time (hr): 24.
For the compound `CC(C)(Oc1ccc(CCNC(=O)c2ccc(Cl)cc2)cc1)C(=O)O` [bezafibrate], the “MUC1 transcript change (Z-score)” value is -0.746. As for `CC1/C=C/C=C/C=C/C=C/C=C/C=C/C=C/C(O[C@@H]2O[C@H](C)[C@H](O)[C@@H](O)[C@@H]2N)CC(O)C(C(=O)O)C(O)CC(=O)CC(O)CC(O)CC(O)CC(=O)CCCC(=O)CC(=O)OC1C(C)CC(C)C(O)CC(=O)c1ccc(N)cc1` (some centres not stated) [candicidin], the “MUC1 transcript change (Z-score)” value stood at 0.997. Regarding `Nc1ccc(O)c(C(=O)O)c1` [mesalamine], the “MUC1 transcript change (Z-score)” value was 1.23. Regarding `NS(=O)(=O)c1cc2c(cc1Cl)NC(CSCc1ccccc1)=NS2(=O)=O` [benzthiazide], the “MUC1 transcript change (Z-score)” value was 0.37.

With `Cc1cccc(C)c1NC(=O)c1ccccc1C(=O)O` [ftaxilide], the “MUC1 transcript change (Z-score)” value was 0.0131. Take `Cc1ccc(Cl)c(Nc2ccccc2C(=O)O)c1Cl` [sodium meclofenamate]: the “MUC1 transcript change (Z-score)” value is -0.0507. In the case of `Nc1ccc(S(=O)(=O)NC(=O)c2ccccc2)cc1` [sulfabenzamide], the “MUC1 transcript change (Z-score)” value is -0.147. For the compound `CO[C@@]12[C@H](COC(N)=O)C3=C(C(=O)C(C)=C(N)C3=O)N1C[C@@H]1N[C@@H]12` [mitomycin c], the “MUC1 transcript change (Z-score)” value was -4.59. To `Oc1ccc(OCc2ccccc2)cc1` [monobenzone] belongs 0.00581; to `Nc1nc(N)c2nc(-c3ccccc3)c(N)nc2n1` [Triamterene], 0.145. As for `CNCCCC1c2ccccc2C=Cc2ccccc21` [Protriptyline hydrochloride], the “MUC1 transcript change (Z-score)” value was found to be 1.28. With `CCCCCCNC(=O)n1cc(F)c(=O)[nH]c1=O` [carmofur], the “MUC1 transcript change (Z-score)” value is -0.0795. For `C[C@H]1CC2C3CCC4=CC(=O)C=C[C@]4(C)[C@@]3(F)[C@@H](O)C[C@]2(C)[C@@]1(O)C(=O)COP(=O)(O)O` (some centres not stated) [betamethasone sodium phosphate], the “MUC1 transcript change (Z-score)” value is -1.03. With `Cc1cccc(N(C)C(=S)Oc2ccc3ccccc3c2)c1` [tolnaftate], the “MUC1 transcript change (Z-score)” value was -0.356. With `O=C1C2CC3CC1CC(O)(C3)C2` [idramantone], the “MUC1 transcript change (Z-score)” value is -0.461. As for `Cc1cc2nc3ccc(N(C)C)cc3[s+]c2cc1N` [tolonium chloride], the “MUC1 transcript change (Z-score)” value is 0.212. Turning to `CC1(C)O[C@@H]2C[C@H]3[C@@H]4CCC5=CC(=O)C=C[C@]5(C)[C@@]4(F)[C@@H](O)C[C@]3(C)[C@]2(C(=O)CO)O1` [triamcinolone acetonide], the “MUC1 transcript change (Z-score)” value came to 0.171. Take `O=C(Nc1ccc([N+](=O)[O-])cc1Cl)c1cc(Cl)ccc1O` [nicolsamide]: the “MUC1 transcript change (Z-score)” value was 1.06. As for `CCCc1cc(O)nc(S)n1` [propylthiouracil], the “MUC1 transcript change (Z-score)” value was -0.0176. Then `Cc1oncc1C(=O)Nc1ccc(C(F)(F)F)cc1` [lefunamide], with 0.729; and `Cc1nnc(NS(=O)(=O)c2ccc(N)cc2)s1` [sulfamethizole], with 0.304.

In the case of `NC(=O)c1cc[n+](CC2=C(C(=O)O)N3C(=O)[C@@H](NC(=O)Cc4cccs4)[C@H]3SC2)cc1` [cefalonium], the “MUC1 transcript change (Z-score)” value is -0.71.
